# Measured values as given in PubChem BioAssay AID1347423 (Functional Genomics Laboratory (NCATS/FGL), 2020).
# Among all 52,000 sequences or so, about 210 (0.4%) were called active.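 How the source made its calls: active means gene whose silencing raises cell survival under the drug, median off-target-corrected z-score across its silencing RNAs 2 or more; inactive means the rest.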 Some of the results follow.
# Assay: Resistance to Poly (ADP-Ribose) Polymerase inhibitor: Gene Identification via Genome-wide siRNA Screen
# Conditions: mouse BRCA2 R2336H ES cells, olaparib, CellTiter-Glo viability; active compounds read high
# How it was run: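 Mouse BRCA2 R2336H ES cells were reverse-transfected with siRNA (20 nM final), treated at 48 h with 500 nM olaparib, and read by CellTiter-Glo after 72 h. Scores: MAD-based z per siRNA, median per gene, seed off-target correction.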
row,Sequence,z-score
1,GGUAUGGAUCUUUCUGAUATT against D2Ertd145e,inactive: -0.874
2,GCAAAUCCGAAUGAACCUUTT against Cabp5,inactive: 0.277
3,GGACAUACCCUUAACCAAATT against Plekhb1,inactive: -1.32
4,GGCAGAACGGAAUAAAAUGTT against Stag2,inactive: 1.3
5,GCUAAGAACGGAUUUCAAGTT against 2900075G08Rik,inactive: 0.517
6,CCAGCAAGUAAAACAAGCUTT against Olfr803,inactive: 0.799
7,GCGAGGACAUCGUAGAGAATT against Msi1h,inactive: 1.97
8,GCCAGUGCAUGAAAGAUAUTT against 1110028C15Rik,inactive: 1.58
9,CCCUGUGCGAGAAUAGCAUTT against Pigh,inactive: -0.682
10,CCGUCUAUUAAAUAUCUCGTT against 2010012F05Rik,inactive: 0.582
11,CCUGCUAAUGUUUGUAAGUTT against 4921515A04Rik,inactive: 0.647
12,GCCACUCUAGCUCGUAUUGTT against Des,inactive: 0.163
13,GGAAAUUUCAGUCGAACAGTT against Cdgap,inactive: 0.403
14,GGCAAAGUUAUCAAGGAGATT against Slc17a6,inactive: 0.297
15,GCCGACAUAGCAUUAUUAATT against Spry2,inactive: 0.729
16,CCAAUGUUGGAAAGCCUUUTT against Zfp97,inactive: -2.06
17,GCAUGGACUGACAUCAAGCTT against Mtap6,inactive: -0.943
18,GGAAGCAAAAUAAAGAAACTT against Myo1e,inactive: -1.09
19,CAUCAUUGAGAUGUCACACTT against Ypel4,inactive: -0.929
20,GCUUCACUCACAUAAUAUCTT against Mrps31,inactive: -0.424
21,GGAGGAAAAGAAAGGUCCUTT against Klc3,inactive: -0.308
22,GGAAGUUCCACCAUACCUCTT against 1700009B20Rik,inactive: 0.309
23,CGACUUGCAUCAGUGGAUCTT against Cpxm2,inactive: -0.278
24,GGUUUUCUUUUCUUCUGCCTT against 0610011L14Rik,inactive: 0.0234
25,GCAUUCGUCAAAUAUUAUCTT against BC025462,inactive: -0.302
26,GGAUGUCUCGGAACUAAGGTT against 1500003D12Rik,inactive: 1.82

row,Sequence,z-score
1,GGAGAAAAUCAAAGAAGCUTT against Gnpda2,inactive: 2.75
2,GUUGUCAAGAGAUACAUGUTT against 0610033E06Rik,inactive: 0.371
3,GCAGUGCGAUUGCUUACAGTT against Tube1,inactive: 0.343
4,CGUGGUCAUCUGGUAUGAGTT against E430039K05Rik,inactive: 1.54
5,GGCCUAAACCCUUUCAUCUTT against V1rb6,inactive: 0.673
6,CCUACAGUACCCAAAAUACTT against AW125688,inactive: 0.285
7,GGAACAUCAAGGGAAUUAUTT against Zfml,inactive: -1.53
8,GGACAAGUGUCAGAGCUGUTT against 3010026O09Rik,inactive: -0.339
9,CCUUGUUCAACAGUCAUGUTT against Ssfa1,inactive: -1.76
10,GGAAGAAAAAGAAAAGAGUTT against Dek,inactive: 0.543
11,GCUGCAUCUAAAGCCUUAATT against Olfr661,inactive: -0.852
12,GGACAUCCAUUCAUGCUUUTT against Serpinb1b,inactive: 0.106
13,GCUGAGUCAAAAUGUAAAGTT against Cdc25c,inactive: 1.07
14,GGCACUGUAGACAAACUCUTT against Stxbp1,inactive: -1.1
15,GCUUCUACCCUUAAUGCCATT against C78212,inactive: 1.52
16,GGCCUGCCGGAGAUAAAGATT against 1700065I17Rik,inactive: -0.78
17,GCUGAAUCUGUUGUCCGUGTT against Mpo,inactive: -0.266
18,GGAGUUGAAUGGCUCUGGATT against Usp26,inactive: -2.16
19,GGCGUACAGGCAAAAAGCATT against 1700025B16Rik,inactive: -0.373
20,CCAUGUCUGUAUCCGCAUUTT against 1700001J03Rik,inactive: 0.705
21,GGCACAUGGAGUGGACAAGTT against Blvrb,inactive: -0.219
22,GGAGGAAAAACAGUGCAGATT against 4931400A14Rik,inactive: -0.841
23,GGUAGUGAGUACUUUGGAATT against Amy2,inactive: 1.25
24,GGUGUUUGAGAUCAGCUGCTT against Trib2,inactive: 0.455
25,GCUUCUAAAAGAGUUGACATT against Mgat4a,inactive: -0.62
26,CGAUUCUGUAUCCAGUUGGTT against Olfr488,inactive: -1.04

row,Sequence,z-score
1,GGAGAAAGUUUUGGAAAAATT against Slc24a5,inactive: 0.846
2,GGAUGAAACUUUCAGUUGCTT against Cenph,inactive: -2.07
3,CCACUUAUGGGCCUACAAATT against Nipsnap1,inactive: -1.84
4,CGGCAAGUAUGAUCUGGACTT against Eno3,inactive: 0.835
5,GCUAGGUGGGCAACUGUAUTT against Edg7,inactive: 0.647
6,GUACACAAGCCCUGUUUACTT against Hoxa6,inactive: -0.381
7,GGCCGAGUCAAGAAUCUUUTT against 1810036I24Rik,inactive: 1.11
8,GCAUGUUUUCCACACCGGUTT against V1rb4,inactive: 0.47
9,GCCCAAAUAGAGGAGGCUUTT against Aqp1,inactive: -0.545
10,GCUGCUCGAUUGCUUUCCATT against 4930429B21Rik,inactive: -0.0996
11,CCCAUCCAUACAAAAAUGATT against Polm,inactive: -0.882
12,GGUGGUACAGGUCUUCUCCTT against Ap1m1,inactive: -0.827
13,GCAUUUUUGAACAAACUUGTT against 4932422E22Rik,inactive: 1.37
14,GGCAUACUGGUUAAUCUCATT against Arl6,inactive: 0.117
15,GCAAUGGUCCCACUGUCAGTT against Nrip1,inactive: -1.19
16,GGUUCACACCAAAGAGCAGTT against Zfp535,inactive: 0.763
17,CGUAAUCCUGACUUUUUGATT against Adam9,inactive: -0.377
18,CGAGAAUUACAGACACUUGTT against AI326906,inactive: -0.928
19,CCCAACACAAGGUGUGAGGTT against Rabl5,inactive: 0.0466
20,GGCUCAUUUAAAACAAGCATT against Cdh11,inactive: 0.0431
21,GGAAAGUAUGGUGGCUUCGTT against Olfr859,inactive: -1.89
22,CCUAGAGUGAGAUAGCCCUTT against Igfbpl1,inactive: 1.54
23,GGGUACACAACUACCCAAGTT against Sox15,inactive: 0.115
24,GGAUCGUUUAUGAAUCUGATT against Slitrk6,inactive: -0.648
25,GCCACUGAUGUAAGGCUCATT against D4Bwg0951e,inactive: 0.953
26,GGAGAAAAUUGAAGAGUAUTT against Gtf2e2,inactive: -0.127

# 5 entries from above, as tab-separated lines:
row	Sequence	z-score
14	GGCAUACUGGUUAAUCUCATT against Arl6	inactive: 0.117
15	GCAAUGGUCCCACUGUCAGTT against Nrip1	inactive: -1.19
16	GGUUCACACCAAAGAGCAGTT against Zfp535	inactive: 0.763
17	CGUAAUCCUGACUUUUUGATT against Adam9	inactive: -0.377
18	CGAGAAUUACAGACACUUGTT against AI326906	inactive: -0.928

# (listing goes on)

row,Sequence,z-score
1,GCAGUGAUCAGGUAAUGAATT against Igf2,inactive: 1.62
2,GGAUCGAUCUGACAUCAAATT against Dspg3,inactive: 0.576
3,GGAAGUGUAUGUUAUUUCATT against B230325K18Rik,inactive: 0.028
4,GCAACCCAUAGUCUACCCUTT against Hoxc4,inactive: 0.559
5,GCUAUAAGGAAAGAGUAGCTT against Trar3,inactive: -0.147
6,GGUUUAGGCAACUAAGUUGTT against Stat5a,inactive: 1.15
7,GGAAGUCACCUUUUAUCCUTT against 1810008K03Rik,inactive: 0.225
8,CGAUGCUGACUGAGAUCAUTT against Rad23a,inactive: 1.9
9,GCACUAAUACUAACCAUGGTT against Rhox12,inactive: 0.413
10,GGAGCAGAUAAUGUACAUATT against 1700001M19Rik,inactive: 0.984
11,CCACUCAAGACCAAAUGGATT against Arx,inactive: 1.17
12,CCUUCCACACCUAUUCCAATT against Kcna2,inactive: -0.803
13,GGCUUACGAGAAAAUAGAATT against Phf8,inactive: 1.14
14,GGAUUGCUUCAAUGAGGAATT against C2a,inactive: -1.52
15,CGCAUGACCUUCCAGAUGCTT against Myoz1,inactive: -0.762
16,GGAGGUAUUGUACAUCAAUTT against Nol4,inactive: 2.07
17,CGAGCUAUAUCCCAUGGAGTT against Penk1,inactive: 0.605
18,UGCCCAAGACUCAGAAGUCTT against Igf1,inactive: 0.521
19,CCAGAGAUUCCCACACGUCTT against Havcr1,inactive: 0.264
20,GCCAGGCUAUAUUUCAUCCTT against Asb15,inactive: -0.164
21,GCUAGCAUGCAUCUCUACATT against Asb17,inactive: -0.431
22,CCUGUUUACAAGGAAUUGATT against Itgb1,inactive: 0.411
23,CCCUAACUCUGUUAAUGCATT against Casp14,inactive: -0.855
24,GGAGAUACGCCGGAGACUATT against Olfr645,inactive: -1.65
25,GGACAUUUUCUUUGGAAAATT against Ccnl1,inactive: -1.11
26,GGCCACAGUGACUUUCAUCTT against Eif4el3,inactive: 0.0281

# 2 records drawn at random from those above:
row,Sequence,z-score
13,GCAUUUUUGAACAAACUUGTT against 4932422E22Rik,inactive: 1.37
24,GGUUUUCUUUUCUUCUGCCTT against 0610011L14Rik,inactive: 0.0234
